These are yes or no findings as the source states them, for the method shown. In cells and extracts the contact can be indirect. Some binding calls cover weakened binding; strength is not graded here.
Target: programmed death ligand 1 (PD-L1) (UniProt Q9NZQ7)
Test: co-IP; in HEK293T cells; legend: verified 'from both positive and negative aspects'; bait and detection not told

Sequences of proteins named here, by UniProt entry; tags and fusion partners are left off. Residues count along the entry.
UniProt Q9NZQ7, residues 19-290: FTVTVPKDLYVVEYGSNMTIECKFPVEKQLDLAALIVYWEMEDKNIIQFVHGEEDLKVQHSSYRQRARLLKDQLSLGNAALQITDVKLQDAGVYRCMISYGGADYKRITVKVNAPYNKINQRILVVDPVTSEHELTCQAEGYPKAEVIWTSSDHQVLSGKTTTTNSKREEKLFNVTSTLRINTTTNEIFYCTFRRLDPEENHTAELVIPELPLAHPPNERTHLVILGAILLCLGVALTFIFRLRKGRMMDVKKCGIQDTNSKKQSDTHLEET
UniProt P02652, residues 19-100: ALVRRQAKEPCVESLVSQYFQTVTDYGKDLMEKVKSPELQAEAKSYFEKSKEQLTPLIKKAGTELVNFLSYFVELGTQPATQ

Which binding does the source give for APOA2 (from UniProt P02652 19-100) here?
The binding was “binds”.
